Measured values from PubChem BioAssay AID493014 (National Center for Advancing Translational Sciences (NCATS), 2011).
The other results are listed elsewhere or left out. The main result of the screen is listed elsewhere. These columns were measured beside it and carry no call. Most of these compounds were active or inconclusive in the main read-out, so they are no random draw. The note in brackets gives the kind of curve behind each potency; many fits are weak.

Assay: qHTS Assay to Find Inhibitors of Chronic Active B-Cell Receptor Signaling
Conditions: ABC-DLBCL IkBa-CBG/CBR reporter, luminescence ratio (green luciferase fused to IkBa over red control in TMD8 lymphoma cells), 4 h
Procedure, shortened: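 Compounds up to 46 uM were incubated four hours with TMD8 cells whose green CBG68 luciferase is fused to IkappaBalpha; red CBR luminescence normalised the signal, and concentration-effect curves were fitted to fusion, red and ratio data.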

[1] = measured here: CBR red luminescence, cell number
[2] = measured here: IkBa-CBG green luminescence

Compound | AC50 [1] | AC50 [2]
COC(=O)c1c(NC(=O)CC2Nc3cc(C)c(C)cc3NC2=O)sc(C)c1C (stereo not given) | 1.16 µM [rising, full curve, poor fit] | 
Cc1cccnc1NC(=O)Nc1cccc(Cl)c1 | 0.631 µM [rising, full curve, poor fit] | 
Fc1ccc(/C=N/Nc2ncnc3nc[nH]c23)cc1F | 2.31 µM [rising, partial curve, poor fit] | 23.1 µM [falling, single point]
O=c1[nH]ncc(N/N=C/c2ccccc2)c1Cl | 32.6 µM [rising, single point] | 
CCn1c(SCC(=O)NCc2ccco2)nnc1-c1c[nH]c2ccccc12 | 3.26 µM [falling, single point] | 
COC(=O)c1cc(=O)n(Cc2ccc3c(c2)OCO3)c(=Nc2ccc(F)cc2)s1 | 6.51 µM [falling, full curve] | 
COCCNC(=S)NNC(=O)c1ccco1 | 20.6 µM [falling, single point] | 
COc1cccc(C#Cc2c(C=O)n(C)c3ccccc23)c1 | 1.46 µM [rising, full curve] | 
COCCCNC(=O)CC(NS(=O)(=O)c1ccc(F)cc1)c1ccc(OC)cc1 (stereo not given) | 0.103 µM [rising, full curve, poor fit] | 
Cn1c(=O)[nH]c(=O)c2c1nc(N1CCN(Cc3ccccc3)CC1)n2CCSc1ncccn1 | 29.1 µM [falling, single point] | 
COc1cccc(/C=N/NC(=S)NC2CC3CC2C2C=CCC32)c1O (stereo not given) |  | 0.251 µM [rising, full curve, poor fit]
c1cc2ccc3ccc(CN4CCOCC4)c4ccc(c1)c2c34 | 11.2 µM [rising, partial curve] | 
O=c1c(Cl)c(NCC2CCCO2)cnn1C12CC3CC(CC(C3)C1)C2 (stereo not given) | 2 µM [rising, partial curve, poor fit] | 
CCN1CCN(S(=O)(=O)c2cc(OCC(=O)NC3CCCCC3)c(C)cc2Cl)CC1 | 0.0058 µM [rising, full curve, poor fit] | 
COc1cc(OC)cc(-c2nnc(SCC(=O)N(Cc3ccccc3)C(C)(C)C)o2)c1 | 0.112 µM [falling, full curve, poor fit] | 
C[C@@H]1CC=C[C@H]2[C@H]1C(=O)N(Cc1ccccc1)[C@H]2c1ccc(F)c(Br)c1 | 35.5 µM [falling, single point] | 
COc1ccccc1C(=O)NCCc1c(C)[nH]c2c(C)ccc(F)c12 | 0.631 µM [rising, full curve, poor fit] | 
COc1cc(-n2c(C)nc3cccnc32)c(Cl)cc1C(=O)O | 22.4 µM [falling, partial curve, poor fit] | 
COc1cc(NC(=S)N2CCN(c3ccccn3)CC2)cc(OC)c1 | 2.06 µM [falling, full curve] | 
Cn1c(=O)c2c(nc(Br)n2CCCc2ccccc2)n(C)c1=O | 3.55 µM [falling, partial curve, poor fit] | 
O=C(C1=C(O)C(=O)N(c2nccs2)C1c1ccccc1)c1cc2ccccc2o1 (stereo not given) | 12.6 µM [falling, single point] | 
c1ccc(Nc2nc(-c3ccncc3)cs2)cc1 | 29.1 µM [falling, single point] | 

Compound | AC50 [1] | AC50 [2]
Cc1ccccc1-n1c(SCC(=O)N/N=C/C=C/c2ccccc2[N+](=O)[O-])nc2ccccc2c1=O | 0.82 µM [rising, full curve] | 
Cc1nc2ccc(-c3nc4ccccc4o3)cc2[nH]1 | 11.2 µM [falling, single point] | 
O=c1c2ccccc2oc2nc(-c3ccco3)n(Cc3ccccc3)c(=O)c12 | 3.55 µM [falling, full curve] | 
COc1ccc(CCNC2=C(Cl)C(=O)N(CCc3ccc(OC)c(OC)c3)C2=O)cc1OC | 14.6 µM [rising, partial curve, poor fit] | 
CCOC(=O)c1sc(NC(=O)Nc2ccccc2)cc1C | 29.1 µM [falling, partial curve, poor fit] | 
O=C(NNC(=S)Nc1ccc(Cl)c(Cl)c1)c1cccc([N+](=O)[O-])c1 | 22.4 µM [rising, partial curve, poor fit] | 
Cc1ccc(C2=NCN(c3ccc(C(=O)O)cc3)C(=S)N2)cc1 | 0.891 µM [falling, full curve] | 
COc1ccccc1N1CCN(S(=O)(=O)c2ccc3nc(-c4ccccc4)[nH]c3c2)CC1 | 18.4 µM [falling, single point] | 
O=C(Oc1ccccc1)c1cccc2cccc(C(=O)Oc3ccccc3)c12 | 11.2 µM [rising, partial curve] | 
C=CCNCCCOc1ccc(Cl)cc1Br | 29.1 µM [falling, single point] | 
Cc1nonc1C(=O)N/N=C/c1ccccc1 | 15.8 µM [falling, single point] | 
C=CCn1c(SCC(=O)NC23CC4CC(CC(C4)C2)C3)nc2cc(C(=O)O)ccc2c1=O | 14.1 µM [falling, partial curve, poor fit] | 
COc1cccc(Cn2cc(C(=O)NCCN(C)C)nn2)c1 | 0.631 µM [falling, full curve, poor fit] | 
CCN1CCN(C(=O)N2CCOCC2)CC1 | 3.98 µM [rising, partial curve, poor fit] | 
O=C(N/N=C/c1sc(N2CCCCC2)nc1-c1cccs1)c1cccnc1 | 35.5 µM [falling, partial curve, poor fit] | 
O=C(NCc1ccco1)C1CCC(N2C(=O)c3ccccc3C2=O)CC1 (stereo not given) | 11.2 µM [rising, partial curve, poor fit] | 
O=C(Cn1nc(C(=O)O)c2ccccc2c1=O)NCc1ccco1 | 12.6 µM [rising, partial curve, poor fit] | 
CC(OC(=O)c1ccccc1NS(=O)(=O)c1cccc(C(F)(F)F)c1)C(=O)N(C)Cc1ccccc1 (stereo not given) |  | 29.1 µM [rising, partial curve, poor fit]
Cc1ccc(-c2nnc3sc(CCc4ccccc4)nn23)cc1 | 1.16 µM [rising, full curve, poor fit] | 
COc1ccc(-c2cc3cc(OC)c(OC)cc3c(C)n2)cc1C | 5.62 µM [rising, full curve, poor fit] | 
CC(C)(C)NC(=O)CCc1nnc(Cc2c[nH]c3ccccc23)o1 | 10 µM [falling, partial curve, poor fit] | 
COc1cccc(C(=O)C[n+]2cccc3cc(OC)ccc32)c1 | 18.4 µM [falling, partial curve, poor fit] | 

Compound | AC50 [1] | AC50 [2]
COC(=O)C1=C(C)N(Cc2ccccc2)C(=NCc2cc(OC)c(OC)c(OC)c2)N[C@H]1c1cccc(F)c1 | 12.6 µM [falling, single point] | 
O=C(Nc1cccc(Br)c1)c1ccc(Cl)c(S(=O)(=O)N2CCOCC2)c1 | 20.6 µM [falling, partial curve, poor fit] | 
CCCCNC(=O)CN1CCN(Cc2ccc3cc(OC)ccc3c2)CC1 | 0.126 µM [rising, full curve, poor fit] | 
O=C(Nc1nnc(-c2ccc3c(c2)CCCC3)o1)c1c(F)cccc1F | 12.6 µM [falling, single point] | 
Cc1cc2cc3c(cc2nc1SCC(=O)N1CCN(C(=O)c2ccco2)CC1)OCO3 | 22.4 µM [falling, single point] | 
C=CCSc1nn2c(=O)c3ccccc3nc2s1 | 12.6 µM [falling, single point] | 
O=C(c1ccc(Br)o1)N1CCN(CCOc2ccccc2)CC1 | 11.2 µM [rising, partial curve, poor fit] | 
Cc1ccc(-c2nc3cccnc3o2)cc1NC(=O)COc1ccc(C(C)(C)C)cc1 | 29.1 µM [falling, single point] | 
CCOc1ccc(N(C)Cc2cc(=O)oc3ccc(OC)cc23)cc1 | 6.31 µM [rising, single point] | 
COC(=O)C(O)(CC(=O)Nc1ccc(C)c(F)c1)C(F)(F)F (stereo not given) | 32.6 µM [rising, single point] | 
N#Cc1cc(NCC2CCCO2)c([N+](=O)[O-])cc1C#N (stereo not given) | 25.9 µM [rising, partial curve, poor fit] | 
COc1ccc(NC(=O)/C=C/c2ccccc2)cn1 | 14.6 µM [falling, partial curve, poor fit] | 
CCCCCCSc1nsc(NC(C)=O)n1 | 1.58 µM [rising, full curve, poor fit] | 
CCOC(=O)C1=C(N)OC2=C(C(=O)CCC2)C1c1cccnc1 (stereo not given) | 35.5 µM [falling, single point] | 
CCN(CC)CCNC(=O)c1ccc(Cl)c(S(=O)(=O)N2CCCCCC2)c1 | 0.82 µM [falling, full curve, poor fit] | 
CC(=O)Cc1nsc(NC(=O)c2ccc(COc3ccccc3C)o2)n1 | 8.91 µM [falling, partial curve, poor fit] | 
COc1ccc(-c2cc3ncc(-c4ccccc4)c(N)n3n2)cc1 | 1 µM [falling, full curve] | 
COc1ccccc1NC(=O)c1ccc(NC(=O)CSc2ncn[nH]2)cc1 | 3.66 µM [rising, full curve, poor fit] | 
COc1ccccc1CNC(=O)CN(CCc1ccccc1)S(C)(=O)=O | 0.794 µM [rising, partial curve, poor fit] | 
CCOC(=O)N1CCC(NC(=O)CCC(=O)N2CC(C)Oc3ccc(Cl)cc32)CC1 (stereo not given) | 0.164 µM [rising, full curve, poor fit] | 

By substructure: the compounds so far containing bromine
Compound | AC50 [1] | AC50 [2]
C[C@@H]1CC=C[C@H]2[C@H]1C(=O)N(Cc1ccccc1)[C@H]2c1ccc(F)c(Br)c1 | 35.5 µM [falling, single point] | 
Cn1c(=O)c2c(nc(Br)n2CCCc2ccccc2)n(C)c1=O | 3.55 µM [falling, partial curve, poor fit] | 
C=CCNCCCOc1ccc(Cl)cc1Br | 29.1 µM [falling, single point] | 
O=C(Nc1cccc(Br)c1)c1ccc(Cl)c(S(=O)(=O)N2CCOCC2)c1 | 20.6 µM [falling, partial curve, poor fit] | 
O=C(c1ccc(Br)o1)N1CCN(CCOc2ccccc2)CC1 | 11.2 µM [rising, partial curve, poor fit] | 
